Results reported in patent publication US10006080B2, “High-selectivity contact activation inhibitor based on infestin-4” (OBSCHESTVO S OGRANICHENNOY OTVETSTVENNOSTYU …, priority 2013, dated 2018).
Results are given in words; binding and its absence hold for the method and conditions named. Binding can be weak; no strength is given. For some assays here: Sequences can lack the tags named with a protein.

By UniProt entry, the sequences of proteins in these tests, tags left out. Where a name states a change or a piece, a line headed by the entry shows the natural chain unless it says otherwise.
UniProt P00742: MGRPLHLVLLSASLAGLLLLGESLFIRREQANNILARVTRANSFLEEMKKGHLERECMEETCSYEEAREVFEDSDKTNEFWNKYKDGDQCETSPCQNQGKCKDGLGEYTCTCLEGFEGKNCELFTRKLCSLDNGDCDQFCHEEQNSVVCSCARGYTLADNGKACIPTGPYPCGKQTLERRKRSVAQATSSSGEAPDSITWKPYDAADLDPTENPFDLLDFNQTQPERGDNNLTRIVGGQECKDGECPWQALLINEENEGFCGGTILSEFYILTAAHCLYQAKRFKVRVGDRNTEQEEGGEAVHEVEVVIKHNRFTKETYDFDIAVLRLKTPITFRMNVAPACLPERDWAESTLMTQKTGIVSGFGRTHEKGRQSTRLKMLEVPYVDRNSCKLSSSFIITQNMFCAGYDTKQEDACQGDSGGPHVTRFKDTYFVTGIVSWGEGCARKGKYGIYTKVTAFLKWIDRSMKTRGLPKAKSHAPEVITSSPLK

Assays:
[1] = target: activated protein C; assay: chromogenic protease inhibition test in buffer
[2] = target: T1, fXa (UniProt P00742 41-179; P00742 235-488, limits assumed); assay: chromogenic protease inhibition test in buffer
T1 construct: also called factor Xa

Binder	binding [1]	binding [2]
corn trypsin inhibitor (other, UniProt P01088 29-138, looked up, Isolated from corn; also called CTI) SAGTSCVPGWAIPHNPLPSCRWYVTSRTCGIGPRLPWPELKRRCCRELADIPAYCRCTALSILMDGAIPPGPDAQLEGRLEDLPGCPREVQRGFAATLVTEAECNLATIS	binds	–
native infestin-4, fusion protein with thioredoxin I E. coli containing polyhistidine clusters (other, It says MutB differs from it at positions 9, 12 and 14 only; also called Inf4; not shown: thioredoxin I of E. coli, fusion partner; polyhistidine clusters) EVRNPCACFRNYVPVCGSDGKTYGNPCMLNCAAQTKVPGLKLVHEGRCQRSNVEQF	–	binds
